{"source": "paper doi:10.1101/2024.11.27.625582", "biological_target": "YFP-tagged Rab2B^Q66L (active form, GTP-locked) (T. brucei)", "test": "affinity purification with mass spectrometry", "note": "No constants are given. Whether binding was seen depends on the method and setting. Binding seen in cells or lysates may run through a third protein. These calls come from enrichment with a bait or labelling near it, and not all partners need be listed.", "data": [{"binder": "heat shock protein HSP60 (protein, UniProt Q37683 9-562) GAKDIRFGTEARQSMLKGVQRAVEAVATTLGPKGRNVIIEQSYGAPKITKDGVTVAKSIEFKDPFENMGAQLVRQVCNKTNDLAGDGTTTSAVLVASIFSEGIKSIATGTNPIDMKRGMDRAVEVILKNIESQSRTVTNTENVVQVATISANGDVELGKLIGEAMEKVGKDGVITTQDGKTLTTELEVVEGMSVDRGYISPYFVTDAKTQKAELEDAFVLVSAKKLNNIHTILPVLNHVVRSGRPLLIIADDVESEALTTMIFNKLQGKLKIACVKAPGFGDNKAAMLQDIAIFSGACVVGEEGSGVELDAEKFEASILGSVKKATITKDDTVLLNGGGDVAMMKERVDLVRGLIERETSDYNREKLQERLAKLSGGVAVIRVGGASEVEVNEKKDRITDALCSTRAAVQEGIVPGGGPALLRASKALDGLLQDQSLTADQRTGVQIIRNAVRLPAHRIVANAGREGAVVVEKVLENTDAAVGYDAQLDRYVNMFEAGIIDPARVVRVALTDAASVASLMMTAEAAVVDLPKDDAPAAGGMGGMGGMGGMDGMY", "values": [{"measurement": "binding", "value": "binds"}]}]}
